Reference: patent US8765675B2, “Use of calcitonin in osteoarthritis” (Novartis AG, priority 2003, dated 2014)
Some entries share one result that the patent states for a list of compounds. At least one structure is not confirmed: it was looked up by name or label, or the drawing left a doubt.

Test: Absorption of delivery agent by the gastro-intestinal tract
Settings: ingested in micronized or coarse form

Compound | absorbed by the gastro-intestinal tract
O=C(O)CCCCCCCNC(=O)c1cc(Cl)ccc1O [5 CNAC, N-(5-chlorosalicyloyl)-8-aminocaprylic acid] | more than 90%
O=C(O)CCCCCCCNC(=O)c1ccccc1O [SNAG, N-(8-[2-hydroxybenzoyl]amino)caprylic acid] | more than 90%
